Values quoted from earlier work in patent publication US11793177B2, “Animal model of Angelman Syndrome” (UNIVERSITY OF SOUTH FLORIDA, priority 2016, dated 2023).
For at least one compound, name, drawing or mass did not settle the structure.

Test system: Bdnf
Conditions: adult rats

O=c1ncccn1[C@@H]1O[C@H](CO)[C@@H](O)[C@H]1O [Zebularine]
effects of maltreatment on Bdnf hypermethylation: reversed
